Source: publication PMC1762330, “‘Fractional Recovery’ Analysis of a Presynaptic Synaptotagmin 1-Anchored Endocytic Protein Complex” (PLoS ONE, 2006)
No constants are given. Whether binding was seen depends on the method and setting. Binding seen in cells or lysates may run through a third protein. Binding can be weak; no strength is given. Values belong to the molecule of their own block, whether it stands above or below them.

How the values were obtained:
[1] = biological target: T1, AP180 (rat (endogenous in rat brain synaptosomes)) (UniProt Q05140); assay: co-IP; fractional recovery: immunoprecipitate from rat brain synaptosome lysate on beads split in three aliquots, 15 min on ice in RIPA buffer with 150, 650 or 1150 mM total salt; what stayed on the beads found by Western blot and densitometry; FR = recovery at 1150 mM / recovery at 150 mM, normalised to the FR of the IP-protein
T1 sequence: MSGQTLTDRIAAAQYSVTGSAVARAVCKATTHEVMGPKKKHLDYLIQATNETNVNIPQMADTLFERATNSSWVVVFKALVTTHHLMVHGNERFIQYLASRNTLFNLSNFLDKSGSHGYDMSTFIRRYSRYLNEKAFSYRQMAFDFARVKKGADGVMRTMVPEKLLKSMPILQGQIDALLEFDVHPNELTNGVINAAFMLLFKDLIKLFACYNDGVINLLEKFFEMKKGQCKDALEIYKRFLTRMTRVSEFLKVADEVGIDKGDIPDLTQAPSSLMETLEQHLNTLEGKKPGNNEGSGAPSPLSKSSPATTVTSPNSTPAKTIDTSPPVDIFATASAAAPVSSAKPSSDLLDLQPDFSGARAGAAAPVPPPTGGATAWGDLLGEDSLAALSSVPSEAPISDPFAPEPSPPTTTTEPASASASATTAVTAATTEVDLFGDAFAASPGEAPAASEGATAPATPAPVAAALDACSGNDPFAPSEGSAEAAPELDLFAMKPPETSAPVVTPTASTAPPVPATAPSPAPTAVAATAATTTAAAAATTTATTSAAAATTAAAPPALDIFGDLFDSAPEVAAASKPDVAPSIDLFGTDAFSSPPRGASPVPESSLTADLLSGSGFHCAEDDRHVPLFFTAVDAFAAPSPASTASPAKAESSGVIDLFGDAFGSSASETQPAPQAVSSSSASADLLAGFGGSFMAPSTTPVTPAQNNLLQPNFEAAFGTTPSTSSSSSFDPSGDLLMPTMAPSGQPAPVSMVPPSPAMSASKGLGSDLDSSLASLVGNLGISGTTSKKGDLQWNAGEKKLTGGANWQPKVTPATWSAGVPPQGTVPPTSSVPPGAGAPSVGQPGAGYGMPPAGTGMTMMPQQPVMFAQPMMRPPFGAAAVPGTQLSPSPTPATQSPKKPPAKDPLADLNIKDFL

[2] = biological target: light chain clathrin (rat (endogenous in rat brain synaptosomes)); assay: as above

binding [1]: binds
Molecule: dynamin

binding [2]: binds
B1: AP180 (protein, UniProt Q05140 1-915)
chain: T1 sequence
